Structures can show the parent of a compound that is named as a salt. The list shows a part of the results. Hit calls seldom repeat between salt and free forms of one compound.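 Kinases were expressed as nanoluciferase fusions in K562 cells and luminescence was read every 4 h between 2 and 18 h as percent of control, DMSO set to 100% and a positive control to 0%. A time point counts as decreased when the signal drops significantly (2 sigma). The hit call is the authors' own, does not follow from the count of time points alone, and its rule is not shown.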
Experiments:
Experiment in all cases: number of time points (of 5) at which kinase-Nluc abundance scored as decreased, DMSO-normalised (count); higher = more persistent destabilization
Conditions in all cases: K562; 2-18 h
[1] = biological target: EGFR_L861Q (UniProt P00533)
[2] = biological target: EGFR_T790M (UniProt P00533)
[3] = biological target: EPHA2 (UniProt P29317)
[4] = biological target: ERBB3 (UniProt P21860)
[5] = biological target: ERBB4_R711C (clone: ERBB4_mut) (UniProt Q15303)
[6] = biological target: ERN1 (UniProt O75460)
[7] = biological target: FGFR1 (UniProt P11362)
[8] = biological target: FGFR2 (UniProt P21802)
[9] = biological target: FGFR3 (UniProt P22607)
[10] = biological target: FGR (UniProt P09769)

Sequences of proteins named here, by UniProt entry; tags and fusion partners are left off. A change or cut given only in a name is not applied to a line headed by its entry.
UniProt P29317, whole entry: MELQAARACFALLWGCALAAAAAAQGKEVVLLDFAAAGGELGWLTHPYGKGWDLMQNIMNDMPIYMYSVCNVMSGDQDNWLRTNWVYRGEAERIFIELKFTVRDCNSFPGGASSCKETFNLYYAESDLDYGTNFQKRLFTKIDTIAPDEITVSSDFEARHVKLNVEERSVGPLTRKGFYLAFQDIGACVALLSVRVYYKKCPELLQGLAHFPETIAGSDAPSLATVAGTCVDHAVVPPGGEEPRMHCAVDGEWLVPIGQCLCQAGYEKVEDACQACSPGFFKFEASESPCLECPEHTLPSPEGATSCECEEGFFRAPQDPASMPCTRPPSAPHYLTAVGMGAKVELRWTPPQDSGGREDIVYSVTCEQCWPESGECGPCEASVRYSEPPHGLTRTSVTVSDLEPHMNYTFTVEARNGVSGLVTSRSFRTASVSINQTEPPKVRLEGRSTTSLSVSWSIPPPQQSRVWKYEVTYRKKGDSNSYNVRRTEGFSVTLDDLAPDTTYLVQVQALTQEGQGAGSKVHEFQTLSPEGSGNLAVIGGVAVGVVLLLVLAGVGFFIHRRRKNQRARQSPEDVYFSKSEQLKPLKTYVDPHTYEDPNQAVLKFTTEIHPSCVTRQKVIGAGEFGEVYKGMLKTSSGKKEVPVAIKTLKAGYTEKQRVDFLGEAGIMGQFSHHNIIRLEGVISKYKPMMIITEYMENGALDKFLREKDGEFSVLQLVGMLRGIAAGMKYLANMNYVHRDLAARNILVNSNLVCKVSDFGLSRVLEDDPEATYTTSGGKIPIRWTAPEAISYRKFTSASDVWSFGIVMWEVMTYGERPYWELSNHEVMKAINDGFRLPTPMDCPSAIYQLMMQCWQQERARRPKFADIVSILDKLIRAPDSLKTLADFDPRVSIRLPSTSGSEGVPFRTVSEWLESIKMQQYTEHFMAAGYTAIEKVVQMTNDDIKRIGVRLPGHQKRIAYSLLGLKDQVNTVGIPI
UniProt P21860, whole entry: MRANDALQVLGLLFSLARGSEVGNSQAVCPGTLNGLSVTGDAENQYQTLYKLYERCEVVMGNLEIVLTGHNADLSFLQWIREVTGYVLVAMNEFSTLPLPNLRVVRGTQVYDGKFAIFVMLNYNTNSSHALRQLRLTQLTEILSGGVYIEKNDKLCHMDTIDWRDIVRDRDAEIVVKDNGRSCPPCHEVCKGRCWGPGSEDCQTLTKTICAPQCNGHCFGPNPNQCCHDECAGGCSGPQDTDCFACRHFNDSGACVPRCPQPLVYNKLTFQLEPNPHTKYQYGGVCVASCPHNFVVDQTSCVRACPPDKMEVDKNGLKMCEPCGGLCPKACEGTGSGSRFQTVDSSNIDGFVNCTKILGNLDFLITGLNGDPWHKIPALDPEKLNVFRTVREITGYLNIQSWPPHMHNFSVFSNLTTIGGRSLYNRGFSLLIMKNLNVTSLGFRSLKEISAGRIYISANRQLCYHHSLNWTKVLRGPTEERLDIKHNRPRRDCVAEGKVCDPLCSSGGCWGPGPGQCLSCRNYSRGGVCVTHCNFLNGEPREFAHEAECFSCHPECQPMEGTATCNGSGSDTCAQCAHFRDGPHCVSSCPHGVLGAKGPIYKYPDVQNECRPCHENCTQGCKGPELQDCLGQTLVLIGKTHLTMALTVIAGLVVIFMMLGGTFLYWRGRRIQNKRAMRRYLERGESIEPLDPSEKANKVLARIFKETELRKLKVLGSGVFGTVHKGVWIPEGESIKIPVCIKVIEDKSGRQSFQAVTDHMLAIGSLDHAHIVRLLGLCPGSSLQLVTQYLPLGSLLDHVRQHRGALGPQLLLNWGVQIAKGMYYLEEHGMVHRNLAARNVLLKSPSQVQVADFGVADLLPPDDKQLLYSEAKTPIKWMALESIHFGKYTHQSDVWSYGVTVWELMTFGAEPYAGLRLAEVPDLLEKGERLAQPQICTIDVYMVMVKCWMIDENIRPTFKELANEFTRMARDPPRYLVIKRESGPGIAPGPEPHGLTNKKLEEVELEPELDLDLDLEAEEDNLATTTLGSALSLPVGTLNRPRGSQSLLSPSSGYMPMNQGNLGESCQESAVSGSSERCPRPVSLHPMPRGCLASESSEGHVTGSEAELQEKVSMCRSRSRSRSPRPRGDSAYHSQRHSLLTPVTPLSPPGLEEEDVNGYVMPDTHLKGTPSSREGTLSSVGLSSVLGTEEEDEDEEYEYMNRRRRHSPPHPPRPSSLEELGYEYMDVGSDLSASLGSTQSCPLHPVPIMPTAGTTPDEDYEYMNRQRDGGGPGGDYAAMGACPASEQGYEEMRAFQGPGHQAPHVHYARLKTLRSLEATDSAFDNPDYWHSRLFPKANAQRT
UniProt O75460: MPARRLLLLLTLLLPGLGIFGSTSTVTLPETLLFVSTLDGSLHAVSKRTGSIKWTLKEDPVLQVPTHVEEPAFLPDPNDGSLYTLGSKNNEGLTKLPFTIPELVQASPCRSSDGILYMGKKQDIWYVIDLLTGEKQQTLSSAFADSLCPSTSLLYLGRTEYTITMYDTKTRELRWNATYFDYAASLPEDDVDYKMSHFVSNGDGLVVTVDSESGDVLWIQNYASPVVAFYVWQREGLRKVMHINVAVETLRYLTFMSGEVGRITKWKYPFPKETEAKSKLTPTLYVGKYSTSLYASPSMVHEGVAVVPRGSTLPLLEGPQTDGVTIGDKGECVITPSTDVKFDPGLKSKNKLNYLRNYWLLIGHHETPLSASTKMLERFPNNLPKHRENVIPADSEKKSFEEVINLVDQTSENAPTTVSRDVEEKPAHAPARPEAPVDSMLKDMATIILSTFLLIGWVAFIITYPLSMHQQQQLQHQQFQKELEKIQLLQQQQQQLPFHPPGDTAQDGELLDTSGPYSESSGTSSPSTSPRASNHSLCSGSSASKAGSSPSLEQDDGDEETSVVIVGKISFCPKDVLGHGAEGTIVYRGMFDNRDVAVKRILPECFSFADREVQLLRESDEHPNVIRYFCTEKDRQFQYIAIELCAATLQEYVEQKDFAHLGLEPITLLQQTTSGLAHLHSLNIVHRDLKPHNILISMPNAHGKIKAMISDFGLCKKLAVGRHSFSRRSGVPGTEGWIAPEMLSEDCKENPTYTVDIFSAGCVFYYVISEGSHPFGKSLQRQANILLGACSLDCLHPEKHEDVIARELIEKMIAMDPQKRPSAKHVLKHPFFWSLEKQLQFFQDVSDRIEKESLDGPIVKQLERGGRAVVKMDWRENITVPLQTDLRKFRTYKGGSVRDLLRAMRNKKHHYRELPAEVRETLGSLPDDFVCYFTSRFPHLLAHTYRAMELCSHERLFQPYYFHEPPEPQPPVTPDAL
UniProt P11362, whole entry, looked up: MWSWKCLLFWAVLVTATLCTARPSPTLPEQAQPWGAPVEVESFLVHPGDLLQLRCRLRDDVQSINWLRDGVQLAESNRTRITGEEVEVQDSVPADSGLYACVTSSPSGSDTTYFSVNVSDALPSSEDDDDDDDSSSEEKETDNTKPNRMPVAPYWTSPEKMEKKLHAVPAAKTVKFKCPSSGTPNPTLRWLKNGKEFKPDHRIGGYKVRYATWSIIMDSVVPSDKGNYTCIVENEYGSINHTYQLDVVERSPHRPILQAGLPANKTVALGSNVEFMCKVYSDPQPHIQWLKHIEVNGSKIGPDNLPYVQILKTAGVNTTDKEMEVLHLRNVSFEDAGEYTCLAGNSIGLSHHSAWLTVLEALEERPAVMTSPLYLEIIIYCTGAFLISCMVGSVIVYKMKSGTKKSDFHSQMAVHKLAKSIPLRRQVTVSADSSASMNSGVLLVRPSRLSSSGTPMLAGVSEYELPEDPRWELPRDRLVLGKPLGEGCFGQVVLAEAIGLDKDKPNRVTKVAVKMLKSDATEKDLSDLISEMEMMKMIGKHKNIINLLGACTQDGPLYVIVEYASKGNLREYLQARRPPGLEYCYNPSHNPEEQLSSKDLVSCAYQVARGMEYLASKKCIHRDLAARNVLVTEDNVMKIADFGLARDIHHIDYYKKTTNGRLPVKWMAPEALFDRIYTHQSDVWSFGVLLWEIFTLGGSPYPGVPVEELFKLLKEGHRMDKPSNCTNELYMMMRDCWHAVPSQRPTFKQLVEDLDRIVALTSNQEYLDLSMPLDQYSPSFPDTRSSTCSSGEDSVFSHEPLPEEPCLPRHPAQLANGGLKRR
UniProt P21802, whole entry, looked up: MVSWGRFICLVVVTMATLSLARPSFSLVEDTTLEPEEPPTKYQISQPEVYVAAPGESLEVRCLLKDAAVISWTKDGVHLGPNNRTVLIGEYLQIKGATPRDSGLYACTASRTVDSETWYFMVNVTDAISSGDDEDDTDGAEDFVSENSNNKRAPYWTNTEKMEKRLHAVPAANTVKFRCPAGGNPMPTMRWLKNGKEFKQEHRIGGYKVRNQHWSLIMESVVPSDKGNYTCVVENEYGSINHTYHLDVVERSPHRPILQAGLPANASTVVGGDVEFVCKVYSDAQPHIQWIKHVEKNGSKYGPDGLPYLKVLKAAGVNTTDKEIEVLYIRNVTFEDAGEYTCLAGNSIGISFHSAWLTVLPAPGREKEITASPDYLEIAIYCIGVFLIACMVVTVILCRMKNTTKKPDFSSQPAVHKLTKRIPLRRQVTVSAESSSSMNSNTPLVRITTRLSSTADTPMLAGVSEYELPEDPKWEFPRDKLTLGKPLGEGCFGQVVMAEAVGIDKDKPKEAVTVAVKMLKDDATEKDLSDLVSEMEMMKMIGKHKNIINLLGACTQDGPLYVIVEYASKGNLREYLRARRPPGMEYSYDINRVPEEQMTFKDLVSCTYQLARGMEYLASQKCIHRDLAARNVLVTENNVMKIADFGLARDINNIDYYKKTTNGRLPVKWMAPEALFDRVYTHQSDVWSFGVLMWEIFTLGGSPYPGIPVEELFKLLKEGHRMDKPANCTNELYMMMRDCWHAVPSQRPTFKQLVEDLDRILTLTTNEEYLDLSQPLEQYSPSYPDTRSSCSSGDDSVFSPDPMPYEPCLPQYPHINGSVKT
UniProt P22607, whole entry, looked up: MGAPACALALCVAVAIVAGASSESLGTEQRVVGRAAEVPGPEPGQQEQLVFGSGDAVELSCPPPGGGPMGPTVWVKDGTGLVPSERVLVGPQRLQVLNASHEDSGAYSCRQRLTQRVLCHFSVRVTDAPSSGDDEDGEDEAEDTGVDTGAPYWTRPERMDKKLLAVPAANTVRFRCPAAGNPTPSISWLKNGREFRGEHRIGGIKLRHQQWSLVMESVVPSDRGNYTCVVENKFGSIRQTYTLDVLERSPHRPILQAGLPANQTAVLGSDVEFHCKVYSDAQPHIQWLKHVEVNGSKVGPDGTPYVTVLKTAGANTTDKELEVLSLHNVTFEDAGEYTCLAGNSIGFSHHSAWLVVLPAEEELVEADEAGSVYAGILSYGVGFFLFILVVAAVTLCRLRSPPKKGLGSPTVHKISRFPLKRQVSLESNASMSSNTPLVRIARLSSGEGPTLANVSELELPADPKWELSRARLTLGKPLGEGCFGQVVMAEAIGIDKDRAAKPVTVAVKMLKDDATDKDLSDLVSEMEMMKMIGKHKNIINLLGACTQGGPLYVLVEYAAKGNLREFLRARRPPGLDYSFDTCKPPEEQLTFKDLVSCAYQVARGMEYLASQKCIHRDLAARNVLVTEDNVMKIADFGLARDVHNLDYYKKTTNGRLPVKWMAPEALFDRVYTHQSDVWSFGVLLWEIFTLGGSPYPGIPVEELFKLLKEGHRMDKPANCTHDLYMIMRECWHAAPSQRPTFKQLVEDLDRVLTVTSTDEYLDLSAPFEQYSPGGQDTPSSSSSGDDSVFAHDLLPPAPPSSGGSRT

Measured: number of time points

O=C1Nc2ccc(C(=O)c3ccco3)cc2C1=Cc1cc(Cl)c(O)c(Cl)c1 (2.5 µM)
0: all assays above

Cc1cc2ncc(-c3ccc(O)c(O)c3)nc2cc1C [Tyrphostin AG1433] (10 µM)
0: all assays above

CNC(=O)c1c(F)cccc1Nc1nc(Nc2cc3c(cc2OC)CCN3C(=O)CN(C)C)nc2[nH]ccc12 (10 µM)
0: all assays above

CN(C)C(=O)Cn1cc(-c2ccc(-c3cncc4ccccc34)cc2)cn1 (10 µM)
0: all assays above

CC(=O)c1c(C)cc2cccc(O)c2c1O [Nepodin] (10 µM)
0: all assays above

COc1cccc(OC)c1C(=O)OCc1cc(O)ccc1O[C@@H]1O[C@H](CO)[C@@H](O)[C@H](O)[C@H]1O [Curculigoside] (10 µM)
0: all assays above

O=C(N/N=C/c1coc2ccccc2c1=O)c1cccnc1 (10 µM)
0: all assays above

CC#CC(=O)N1CC[C@@H](n2c(=O)n(-c3ccc(Oc4ccccc4)cc3)c3c(N)ncnc32)C1 [Tirabrutinib (hydrochloride)] (10 µM)
0: all assays above

Cc1nc(-c2cn3c(n2)-c2ccc(-c4cnn(C(C)(C)C(N)=O)c4)cc2OCC3)n(C(C)C)n1 [Taselisib] (10 µM)
0: all assays above

C[C@@H]1COCCN1c1cc(C2([S@@](C)(=N)=O)CC2)nc(-c2ccnc3[nH]ccc23)n1 [(S)-Ceralasertib] (10 µM)
0: all assays above

Cn1cnc2c(F)c(Nc3ccc(Br)cc3Cl)c(C(=O)NOCCO)cc21 [Selumetinib] (10 µM)
2: [4]
1: [8]
0: all other assays above

COc1cc(Nc2ncc(F)c(Nc3ccc4c(n3)N(COP(=O)(O)O)C(=O)C(C)(C)O4)n2)cc(OC)c1OC [Fostamatinib (disodium hexahydrate)] (10 µM)
0: all assays above

COc1ccc(Cl)c(Nc2nc3ccccc3nc2NS(=O)(=O)c2cccc(NC(=O)C(C)(C)N)c2)c1 [Pilaralisib] (10 µM)
0: all assays above

CN1CCC(c2cc(-c3ccncc3)c(-c3ccc(F)cc3)[nH]2)CC1 (10 µM)
0: all assays above

c1ccc(-c2[nH]ncc2-c2ccnc3ccccc23)nc1 (10 µM)
0: all assays above

Cc1[nH]c(/C=C2\C(=O)Nc3ccc(F)cc32)c(C)c1C(=O)N[C@H]1CCN(C(=O)N(C)C)C1 [Vorolanib] (10 µM)
0: all assays above

Cc1cc(Nc2ncnc3ccc(NC4=NC(C)(C)CO4)cc23)ccc1Oc1ccn2ncnc2c1 [Tucatinib (hemiethanolate)] (2.5 µM)
0: all assays above

O=c1cc(CN2CCOCC2)occ1OCCCCCSc1ccnc2cc(C(F)(F)F)ccc12 (10 µM)
0: all assays above

O=C1N[C@@H](Cc2c[nH]c3ccccc23)C(=O)N2CCC[C@@H]12 [Brevianamide F] (10 µM)
0: all assays above

CN(CC(=O)N(Cc1ccc(C2CCCCC2)cc1)c1ccc(C(=O)NO)cc1)S(=O)(=O)c1c(F)c(F)c(F)c(F)c1F (2.5 µM)
0: all assays above

CC1=C(C(=O)O)N2C(=O)[C@@H](NC(=O)[C@H](N)C3=CCC=CC3)[C@H]2SC1 [Cephradine] (10 µM)
0: all assays above

Cc1cccc(-c2[nH]ncc2-c2ccc(F)c(-c3cnn(CCO)c3)c2)n1 (10 µM)
0: all assays above

N#Cc1c(C2CCNCC2)cc(-c2c(O)cccc2OCC2CC2)nc1N [ACHP (Hydrochloride)] (10 µM)
0: all assays above

O=c1[nH]c(=O)n([C@@H]2O[C@H](CO)[C@@H](O)[C@@H]2O)cc1/C=C/Br [Sorivudine] (10 µM)
0: all assays above

CCN1CCC(n2cc(CNc3cc(Cl)c4ncc(C#N)c(Nc5ccc(F)c(Cl)c5)c4c3)nn2)CC1 [Cot inhibitor-2] (2.5 µM)
0: all assays above

NS(=O)(=O)c1ccc(-n2nc(C(F)(F)F)cc2-c2ccc(Cl)cc2)cc1 (10 µM)
0: all assays above

Cn1ncc(Cl)c1-c1cc(C(=O)N[C@H](CN)Cc2ccc(F)c(F)c2)oc1Cl [Uprosertib] (10 µM)
0: all assays above

COc1ccc(OC)c(C2C(C#N)=C(N)Oc3n[nH]c(-c4ccc5ccccc5c4)c32)c1 (stereo not given) (10 µM)
0: all assays above

CCc1cc2c(cc1N1CCC(N3CCOCC3)CC1)C(C)(C)c1[nH]c3cc(C#N)ccc3c1C2=O [Alectinib (Hydrochloride)] (2 µM)
0: all assays above

CCCS(=O)(=O)Nc1ccc(F)c(C(=O)c2c[nH]c3ncc(-c4ccc(Cl)cc4)cc23)c1F [Vemurafenib] (10 µM)
1: [7] | [9]
0: all other assays above

O=C(NOCC(O)CO)c1cc(Br)c(F)c(F)c1Nc1ccc(I)cc1F (stereo not given) (2.5 µM)
0: all assays above

CC(C)(C)c1nc(-c2cccc(NS(=O)(=O)c3c(F)cccc3F)c2F)c(-c2ccnc(N)n2)s1 [Dabrafenib] (2.5 µM)
0: all assays above

Cc1cc(=O)oc2c(C=O)c(O)ccc12 (10 µM)
0: all assays above

CN1CCN(c2cccc(Nc3nc4c(-c5ccc(S(C)(=O)=O)cc5)cccn4n3)c2)CC1 (10 µM)
0: all assays above

CC1CCc2c(cc(Br)c(F)c2Br)N1C=O (stereo not given) (10 µM)
0: all assays above

NC(=O)c1nc(Nc2ccccc2)sc1NC(=O)C1CCCCC1 (10 µM)
0: all assays above

13 consecutive entries from above, for reference:
N#Cc1c(C2CCNCC2)cc(-c2c(O)cccc2OCC2CC2)nc1N [ACHP (Hydrochloride)] (10 µM)
0: all assays above

O=c1[nH]c(=O)n([C@@H]2O[C@H](CO)[C@@H](O)[C@@H]2O)cc1/C=C/Br [Sorivudine] (10 µM)
0: all assays above

CCN1CCC(n2cc(CNc3cc(Cl)c4ncc(C#N)c(Nc5ccc(F)c(Cl)c5)c4c3)nn2)CC1 [Cot inhibitor-2] (2.5 µM)
0: all assays above

NS(=O)(=O)c1ccc(-n2nc(C(F)(F)F)cc2-c2ccc(Cl)cc2)cc1 (10 µM)
0: all assays above

Cn1ncc(Cl)c1-c1cc(C(=O)N[C@H](CN)Cc2ccc(F)c(F)c2)oc1Cl [Uprosertib] (10 µM)
0: all assays above

COc1ccc(OC)c(C2C(C#N)=C(N)Oc3n[nH]c(-c4ccc5ccccc5c4)c32)c1 (stereo not given) (10 µM)
0: all assays above

CCc1cc2c(cc1N1CCC(N3CCOCC3)CC1)C(C)(C)c1[nH]c3cc(C#N)ccc3c1C2=O [Alectinib (Hydrochloride)] (2 µM)
0: all assays above

CCCS(=O)(=O)Nc1ccc(F)c(C(=O)c2c[nH]c3ncc(-c4ccc(Cl)cc4)cc23)c1F [Vemurafenib] (10 µM)
1: [7] | [9]
0: all other assays above

O=C(NOCC(O)CO)c1cc(Br)c(F)c(F)c1Nc1ccc(I)cc1F (stereo not given) (2.5 µM)
0: all assays above

CC(C)(C)c1nc(-c2cccc(NS(=O)(=O)c3c(F)cccc3F)c2F)c(-c2ccnc(N)n2)s1 [Dabrafenib] (2.5 µM)
0: all assays above

Cc1cc(=O)oc2c(C=O)c(O)ccc12 (10 µM)
0: all assays above

CN1CCN(c2cccc(Nc3nc4c(-c5ccc(S(C)(=O)=O)cc5)cccn4n3)c2)CC1 (10 µM)
0: all assays above

CC1CCc2c(cc(Br)c(F)c2Br)N1C=O (stereo not given) (10 µM)
0: all assays above

Further entries

CCc1c(C(=O)NNC(=O)C(O)c2cc(F)cc(F)c2)ccc(O)c1C (stereo not given) (10 µM)
0: all assays above

CCS(=O)(=O)Nc1ccc2[nH]c(O)c(C(=Nc3ccc(CN4CCCCC4)cc3)c3ccccc3)c2c1 [Hesperadin] (2.5 µM)
2: [9]
3: [1] | [4] | [5] | [8]
0: all other assays above

CCOc1ccc2cc(-c3nn(CC4CCN(C)CC4)c4ncnc(N)c34)ccc2n1 (10 µM)
0: all assays above

Cn1nccc1Nc1nccc(-c2ccn([C@H](CO)c3ccc(Cl)c(F)c3)c(=O)c2)n1 [Ravoxertinib] (10 µM)
0: all assays above

CS(=O)(=O)Nc1cc(-c2ccc3ncnc(Nc4ccc(F)c(Cl)c4)c3c2)cnc1Cl (2.5 µM)
3: [5]
0: all other assays above

O=C([O-])c1cc2ccccc2c(Cc2c(O)c(C(=O)[O-])cc3ccccc23)c1O.[Na+].[Na+] [Pamoic acid (disodium)] (10 µM)
0: all assays above

C[C@@H]1CC[C@@H](Nc2nc(NC(C)(C)C)ncc2C(N)=O)C[C@H]1O (10 µM)
0: all assays above

CCCCCCCCCCCCC/C=C/[C@@H](O)[C@@H](N)CO [D-erythro-Sphingosine] (2.5 µM)
0: all assays above

c1cncc(CN2CCC(n3ncc4c(N5CCOCC5)nc(-c5ccc6[nH]ccc6c5)nc43)CC2)c1 (10 µM)
5: [7]
4: [4] | [8]
2: [1] | [6]
0: all other assays above

Cc1ccc(OCCSc2ncccn2)c(Br)c1 [ZLN024 (hydrochloride)] (10 µM)
0: all assays above

Nc1ncnc2c1c(-c1ccc(Oc3ccccc3)cc1)nn2C1CCCC1 (2.5 µM)
1: [8]
0: all other assays above

CN1C(=O)N[C@H](Cc2c[nH]c3c(Cl)cccc23)C1=O [Necrostatin 2] (10 µM)
0: all assays above

Cc1ccccc1-c1c2nccc(-c3ccc(F)cc3F)c2cc[n+]1[O-] (10 µM)
0: all assays above

C[C@@H](c1ccc(-c2ccccc2)c(F)c1)c1cc(NC(=N)N2CCOCC2)on1 [Rimacalib] (10 µM)
0: all assays above

Cc1ccc(C(=O)Nc2ccc(Oc3cc4cnn(C)c4cc3-c3cn[nH]c3)c(F)c2)c(=O)n1-c1ccc(F)cc1 [Merestinib] (2.5 µM)
0: all assays above

Nc1ccc(-c2cnc(N)c(-c3ccc(Cl)cc3)c2)cn1 (10 µM)
0: all assays above

CCOC(=O)N1CCN(C(=O)[C@H](Cc2cccc(C(=N)N)c2)NS(=O)(=O)c2c(C(C)C)cc(C(C)C)cc2C(C)C)CC1 (10 µM)
0: all assays above

C=C(CC[C@@H](C(=O)O)[C@H]1[C@H](O)C[C@@]2(C)C3=C(CC[C@]12C)[C@@]1(C)CC[C@H](OC(C)=O)C(C)(C)[C@@H]1CC3)C(C)C [Pachymic acid] (10 µM)
0: all assays above

Cn1cc(-c2ccc3nnc(Sc4ccc5ncccc5c4)n3n2)cn1 (10 µM)
0: all assays above

CCC(C)N1c2ccccc2C(=O)N(C)c2cnc(Nc3ccc(C(=O)N4CCC(N5CCN(C)CC5)CC4)cc3OC)nc21 (stereo not given) (2.5 µM)
0: all assays above

COc1cc2c(cc1OC)CN(S(=O)(=O)c1ccc(OC)c(N3CCN(C(=O)c4ccc(F)cc4C(F)(F)F)CC3)c1)CC2 (10 µM)
0: all assays above

FC(F)c1nc2ccccc2n1-c1nc(N2CCOCC2)nc(N2CCOCC2)n1 (2 µM)
1: [5]
0: all other assays above

FC(F)(c1ccc2ncccc2c1)c1nnc2ccc(-c3ccncc3)nn12 (10 µM)
0: all assays above

CN(C)CCSSCCNC(=O)C1CCN(C(=O)CSc2ccc(Cl)cc2)CC1 (10 µM)
0: all assays above

O=Nc1c(-c2c(O)[nH]c3ccc(I)cc23)[nH]c2ccccc12 [5-Iodo-indirubin-3'-monoxime] (10 µM)
0: all assays above

COCCNc1nc2ccc(C#CC3(O)CCCCC3)cc2n1-c1ccnc(N)n1 (10 µM)
0: all assays above

COc1cc2nccc(Oc3ccc(NC(=O)NC4CC4)c(Cl)c3)c2cc1C(N)=O [Lenvatinib (mesylate)] (10 µM)
1: [2]
3: [1]
4: [4] | [5]
0: all other assays above

Oc1ccc(Nc2nc(-c3ccc(Cl)cc3)cs2)cc1 (10 µM)
0: all assays above

C[C@@H](c1ccc(F)cc1)n1nnc2cnc3ccc(-c4ccc5ocnc5c4)cc3c21 (10 µM)
0: all assays above

CCS(=O)(=O)c1ncc(Cl)c(C(=O)N(Cc2ccc(Cl)cc2)Cc2ccco2)n1 (2.5 µM)
2: [6] | [8]
0: all other assays above

COc1ncc(Cl)cc1S(=O)(=O)Nc1ccc(F)c(C#Cc2cnc(N)nc2)c1F (2.5 µM)
0: all assays above

C=CC(=O)Nc1cccc(Nc2nc(Nc3ccc(NC4CN(CCF)C4)cc3OC)ncc2C(F)(F)F)c1 (2.5 µM)
0: all assays above

Cc1ccc2cc(-c3c(C)ccc(C(=O)c4c(-c5ccccc5)n(C)n(-c5ccccc5)c4=O)c3N)ccc2n1 (2.5 µM)
0: all assays above

CC(C)(C)c1cc(O)ccc1O (10 µM)
3: [7]
0: all other assays above

O=C(Nc1cn[nH]c1-c1ccccn1)c1nn(C2CCNCC2)cc1Cl (10 µM)
1: [5]
2: [1]
0: all other assays above

C=CC(=O)Nc1cc(C)ccc1Nc1nc(Nc2cc(OC)ncc2C)ncc1C(F)(F)F (10 µM)
0: all assays above

Cn1cnc2c(F)c(Nc3ccc(Br)cc3Cl)c(C(=O)NOCCO)cc21 [Selumetinib (sulfate)] (10 µM)
0: all assays above

Nc1cc(C(F)(F)F)c(-c2cc(N3CCOCC3)nc(N3CCOCC3)n2)cn1 [Buparlisib (Hydrochloride)] (2.5 µM)
2: [1]
1: [8]
3: [5]
0: all other assays above
